Assay results as given in PubChem BioAssay AID2685 (National Center for Advancing Translational Sciences (NCATS), 2010).
The other results are listed elsewhere or left out. The main result of the screen is listed elsewhere. These columns were measured beside it and carry no call. Most of these compounds were active or inconclusive in the main read-out, so they are no random draw. Potencies come from curve fits of mixed quality, noted in brackets.

Test: qHTS Assay for Lipid Storage Modulators in Drosophila S3 Cells;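 on cell number change: cells counted by Cell Tracker Red CMTPX staining in the red channel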
Settings: BODIPY lipid droplet fluorescence, 18-24 h; for cell number change: measured here: cell count max response, cells fed with added oleic acid
Outline: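 Drosophila S3 cells loaded with oleic acid (400 uM, as added) and compounds at several concentrations; lipid droplets imaged by 488-nm laser-scanning cytometry, 500–530 nm intensity and object ratio to cell channel. Percent activity normalized to 20 uM Triacsin C.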

[1] = measured here: lipid fluorescence (Fed channel) AC50, cells fed with added oleic acid
[2] = measured here: cell number channel AC50, cells fed with added oleic acid

SMILES: Cc1[nH][nH]c(=O)c1C(c1ccc(O)c([N+](=O)[O-])c1)c1c(C)[nH][nH]c1=O
- cell number change: 10.4%
- AC50 [1]: 16.4 µM [falling, single point]

SMILES: COc1ccc(C2C(C#N)=C(C)NC3=C2C(=O)CC(C)(C)C3)c(OC)c1 (stereo not drawn)
- AC50 [1]: 0.731 µM [falling, single point]

SMILES: Cc1cc(C)nc(Nc2ncc(O)n2-c2ccccc2)n1
- cell number change: 14.2%
- AC50 [1]: 18.4 µM [rising, single point]

SMILES: CS(=O)(=O)c1ccc(Cl)c(C(=O)O)c1
- cell number change: -30.6%
- AC50 [2]: 0.231 µM [falling, full curve, poor fit]
- AC50 [1]: 1.16 µM [falling, full curve]

SMILES: Cc1ccc(-c2cnc(-c3ccncc3)o2)cc1
- cell number change: -12.7%
- AC50 [2]: 0.82 µM [rising, single point]
- AC50 [1]: 2.91 µM [rising, partial curve]

SMILES: CCOC(=O)[C@H]1[C@H]2COc3cc(OC)ccc3[C@@H]2N2C(=O)CN(Cc3ccco3)C(=O)[C@@]12C
- cell number change: 12.7%
- AC50 [1]: 29.1 µM [rising, single point]

SMILES: CC1(C)CC(=O)C2=C(C1)OC(c1ccc(O)cc1)C(C#N)=C2N (stereo not drawn)
- cell number change: -18.3%
- AC50 [1]: 29.1 µM [falling, single point]

SMILES: CCc1cccc(NC(=O)CCCn2nc(CC)n3c(cc4occc43)c2=O)c1
- AC50 [1]: 16.4 µM [falling, partial curve]

SMILES: O=C(Nc1cccc(S(=O)(=O)C(F)F)c1)c1ccc(Cl)c(S(=O)(=O)N2CCOCC2)c1
- AC50 [1]: 0.517 µM [rising, full curve]

SMILES: O=C(Nc1ccccc1)c1ccc2c(c1)OCCCO2
- cell number change: 30.1%

SMILES: Cc1cc(C)cc(N(C(=O)c2csnn2)C(C(=O)NC2CCCCC2)c2cccnc2)c1 (stereo not drawn)
- cell number change: 29%

SMILES: COc1ccccc1CC(=O)NNS(=O)(=O)c1ccc([N+](=O)[O-])cc1
- cell number change: 20.1%
- AC50 [1]: 0.13 µM [rising, full curve, poor fit]

SMILES: O=C(NN=C1CCCCCCCCCCC1)c1ccccc1F
- cell number change: -2.44%
- AC50 [1]: 25.9 µM [rising, single point]

SMILES: Cc1nnc(SCC(=O)Nc2ncc3c(n2)CCCC3=O)s1
- cell number change: -12.5%
- AC50 [1]: 0.0058 µM [falling, full curve, poor fit]

SMILES: CC(C)C(C(=O)Nc1ccncc1)c1ccc(Cl)cc1 (stereo not drawn)
- cell number change: -30.3%
- AC50 [2]: 23.1 µM [falling, single point]

SMILES: CN(CCO)CC(O)Cn1cnc2c1c(=O)n(C)c(=O)n2C (stereo not drawn) (tested in a mixture with another compound)
- cell number change: 6.75%
- AC50 [1]: 0.651 µM [rising, full curve, poor fit]

SMILES: CCOC(=O)c1[nH]c(C)c(C(=O)N2CCN(c3cccc(Cl)c3)CC2)c1C
- AC50 [1]: 6.51 µM [falling, single point]

SMILES: O=C1NCCCC1C(=O)N1CCN(C(=O)c2ccco2)CC1 (stereo not drawn)
- cell number change: 3.22%
- AC50 [1]: 0.82 µM [falling, full curve]

SMILES: O=c1cc(N=Nc2ccc(Cl)cc2)[nH]c(=O)[nH]1
- cell number change: -35.5%
- AC50 [2]: 2.31 µM [falling, full curve, poor fit]
- AC50 [1]: 0.731 µM [falling, full curve]

SMILES: O=C(N/N=C/c1c[nH]c2ccccc12)c1ccn(Cc2ccc(Cl)cc2)n1
- cell number change: -29.2%

SMILES: Nn1c(SCC(=O)Nc2cccc(S(N)(=O)=O)c2)nnc1C1CC1
- cell number change: -18.6%

SMILES: CNC(=O)NC(=O)C(c1ccccc1)N(C)CC1COc2ccccc2O1 (stereo not drawn)
- cell number change: 33.9%
- AC50 [1]: 2.91 µM [rising, single point]

SMILES: CCNC(=S)NNC(=O)c1ccc2ncccc2c1
- cell number change: 1.2%
- AC50 [2]: 5.8 µM [rising, single point]
- AC50 [1]: 5.17 µM [rising, single point]

SMILES: Cc1ccc(S(=O)(=O)Nc2nc3n(n2)C(c2ccc(Cl)cc2)CC(=O)N3)cc1 (stereo not drawn)
- cell number change: -0.163%
- AC50 [1]: 7.31 µM [falling, single point]

SMILES: COc1ccccc1CNC(=O)c1cc(C(C)C)nc2ccccc12
- cell number change: -1.21%
- AC50 [1]: 0.184 µM [rising, full curve, poor fit]

SMILES: Cc1ccc(-n2ncc3c(SCc4cccnc4)ncnc32)c(C)c1
- cell number change: -18.3%
- AC50 [1]: 0.00411 µM [falling, full curve, poor fit]

SMILES: CCCCNC(=O)C(=O)NCCCn1ccnc1
- cell number change: 40.1%
- AC50 [2]: 2.06 µM [rising, partial curve]
- AC50 [1]: 23.1 µM [rising, single point]

SMILES: CC(=O)c1ccc(S(=O)(=O)NC(=O)NC2CCCCC2)cc1
- cell number change: 32.9%
- AC50 [2]: 4.11 µM [rising, full curve, poor fit]
- AC50 [1]: 29.1 µM [rising, single point]

SMILES: Cc1ccc([C@@H]2CC=C(C(=O)O)CN2S(=O)(=O)c2ccccc2C)cc1
- cell number change: -13.9%
- AC50 [2]: 4.11 µM [falling, single point]
- AC50 [1]: 3.66 µM [falling, single point]

SMILES: O=C(N/N=C/c1ccc(F)cc1)c1ccc(OCc2ccccc2)cc1
- cell number change: 26.6%
- AC50 [2]: 1.16 µM [rising, full curve, poor fit]
- AC50 [1]: 29.1 µM [rising, single point]

SMILES: Fc1cccc(CCN2CCNC[C@H]2Cc2cccc3ccccc23)c1
- AC50 [1]: 0.517 µM [falling, partial curve]

SMILES: CN(C)CCOc1cccc(Br)c1
- cell number change: -13.2%
- AC50 [1]: 35.5 µM [falling, single point]

SMILES: O=C(Cc1ccc(Cl)cc1)Nc1ccc(SC(F)F)cc1
- cell number change: -36.8%
- AC50 [2]: 32.6 µM [falling, partial curve, poor fit]
- AC50 [1]: 6.51 µM [falling, single point]

SMILES: COc1ccc(OC)c(NC(=O)c2ccc(CN(c3cc(Cl)ccc3C)S(=O)(=O)c3ccccc3)cc2)c1
- cell number change: -16.5%
- AC50 [1]: 1.84 µM [falling, full curve, poor fit]

SMILES: COc1ccc(C2Nc3ccccc3C(=O)N2NS(C)(=O)=O)c(OC)c1 (stereo not drawn)
- cell number change: 33.3%
- AC50 [2]: 32.6 µM [rising, single point]
- AC50 [1]: 29.1 µM [rising, partial curve, poor fit]

SMILES: COc1cc(NC(=O)c2ccc(C)cc2C)ccc1NC(=O)c1cc2ccccc2o1
- cell number change: -10.8%

SMILES: O=C(COc1c(Br)cc(Br)c2cccnc12)N1CCCCC1
- AC50 [2]: 6.51 µM [rising, single point]

SMILES: Cc1cc(S(=O)(=O)NC2CCCCC2)ccc1OCC(=O)NCc1ccccn1
- AC50 [2]: 0.731 µM [rising, full curve]
- AC50 [1]: 0.92 µM [rising, full curve]

SMILES: CCc1nnc(NC(=O)CSc2nnc(-c3ccccc3O)n2-c2ccc(C)cc2C)s1
- cell number change: -40.3%
- AC50 [2]: 20.6 µM [falling, single point]
- AC50 [1]: 29.1 µM [falling, single point]

SMILES: CCCCNC(=O)Cn1cnc2c(cnn2-c2ccc(C)c(C)c2)c1=O
- cell number change: 21.6%
- AC50 [2]: 1.3 µM [rising, single point]
- AC50 [1]: 1.3 µM [rising, full curve]

SMILES: O=C(CCCCl)NC(=S)Nc1ccc(CN2CCOCC2)cc1
- cell number change: -38.2%
- AC50 [2]: 29.1 µM [falling, single point]
- AC50 [1]: 29.1 µM [falling, single point]

SMILES: CCc1c(C)nc2ncnn2c1N1CCCC(C(=O)Nc2cc(F)ccc2C)C1 (stereo not drawn)
- cell number change: -45.5%
- AC50 [1]: 0.058 µM [rising, full curve, poor fit]

SMILES: CN1CCN(c2ccccc2NC(=O)COc2ccccc2)CC1
- cell number change: 9.14%
- AC50 [1]: 0.731 µM [falling, full curve]

SMILES: CCOc1ccccc1NC(=O)c1cnc(NS(=O)(=O)c2ccccc2)nc1
- cell number change: -2.56%
- AC50 [1]: 0.00461 µM [rising, full curve, poor fit]

SMILES: CCC1CCc2c(sc(NC(=O)c3ccco3)c2C(N)=O)C1 (stereo not drawn)
- cell number change: -50.7%
- AC50 [2]: 29.1 µM [falling, single point]
- AC50 [1]: 29.1 µM [falling, single point]

SMILES: O=C(O)C1CCN(C(=O)CSc2nc3ccccc3s2)CC1
- cell number change: 11.8%
- AC50 [1]: 3.66 µM [falling, single point]

SMILES: COc1ccc(NC(=O)C(C)N(C)Cc2ccc3ccccc3c2)cc1 (stereo not drawn)
- cell number change: -26.7%
- AC50 [1]: 6.51 µM [falling, single point]

SMILES: FC(F)(F)c1ccc(Cl)c(N/N=C/c2ccc(N3CCOCC3)s2)c1
- cell number change: -75.6%
- AC50 [2]: 23.1 µM [falling, partial curve]
- AC50 [1]: 18.4 µM [falling, partial curve, poor fit]

SMILES: CN1CCN(/C=N/c2c(C#N)cnn2C)CC1
- cell number change: -27.5%
- AC50 [1]: 29.1 µM [falling, single point]

SMILES: CCOC(=O)Cc1csc(NC(=O)COc2ccccc2OCC)n1
- cell number change: -22.5%
- AC50 [1]: 0.651 µM [falling, full curve, poor fit]

SMILES: O=C(CCC(=O)Nc1ccccc1Cl)N/N=C1\CCCc2ccccc21
- cell number change: 2.19%
- AC50 [1]: 2.59 µM [rising, single point]

SMILES: CN(C)CCCN(C(=O)c1ccc2c(c1)CCCC2)c1nc2ccc(Cl)cc2s1
- cell number change: -38.4%
- AC50 [2]: 23.1 µM [falling, single point]
- AC50 [1]: 29.1 µM [falling, single point]

SMILES: CCCN(C(=O)COC(=O)Cn1c(=O)oc2ccccc21)c1c(N)n(Cc2ccccc2)c(=O)[nH]c1=O
- cell number change: -9.49%
- AC50 [1]: 6.51 µM [falling, single point]

SMILES: CCOC(=O)Cn1nc(-c2ccccc2)c2cnc3ccc(C)cc3c21
- cell number change: -57.1%
- AC50 [2]: 11.6 µM [falling, partial curve]
- AC50 [1]: 8.2 µM [falling, partial curve]

SMILES: COc1ccc(S(=O)(=O)N(CC(=O)NCc2ccncc2)Cc2ccccc2)cc1
- cell number change: 27.6%

SMILES: O=C(OCCN=C1NS(=O)(=O)c2ccccc21)c1ccccc1
- cell number change: -28.7%
- AC50 [2]: 0.731 µM [falling, full curve, poor fit]
- AC50 [1]: 1.64 µM [falling, partial curve]
